These results are taken from publication doi:10.1101/2021.09.15.460490.

Chains of the proteins cited; added tags and fusions are not shown. Lines headed by an entry give the natural chain unless they say otherwise; changes in a name come on top.
UniProt O75116: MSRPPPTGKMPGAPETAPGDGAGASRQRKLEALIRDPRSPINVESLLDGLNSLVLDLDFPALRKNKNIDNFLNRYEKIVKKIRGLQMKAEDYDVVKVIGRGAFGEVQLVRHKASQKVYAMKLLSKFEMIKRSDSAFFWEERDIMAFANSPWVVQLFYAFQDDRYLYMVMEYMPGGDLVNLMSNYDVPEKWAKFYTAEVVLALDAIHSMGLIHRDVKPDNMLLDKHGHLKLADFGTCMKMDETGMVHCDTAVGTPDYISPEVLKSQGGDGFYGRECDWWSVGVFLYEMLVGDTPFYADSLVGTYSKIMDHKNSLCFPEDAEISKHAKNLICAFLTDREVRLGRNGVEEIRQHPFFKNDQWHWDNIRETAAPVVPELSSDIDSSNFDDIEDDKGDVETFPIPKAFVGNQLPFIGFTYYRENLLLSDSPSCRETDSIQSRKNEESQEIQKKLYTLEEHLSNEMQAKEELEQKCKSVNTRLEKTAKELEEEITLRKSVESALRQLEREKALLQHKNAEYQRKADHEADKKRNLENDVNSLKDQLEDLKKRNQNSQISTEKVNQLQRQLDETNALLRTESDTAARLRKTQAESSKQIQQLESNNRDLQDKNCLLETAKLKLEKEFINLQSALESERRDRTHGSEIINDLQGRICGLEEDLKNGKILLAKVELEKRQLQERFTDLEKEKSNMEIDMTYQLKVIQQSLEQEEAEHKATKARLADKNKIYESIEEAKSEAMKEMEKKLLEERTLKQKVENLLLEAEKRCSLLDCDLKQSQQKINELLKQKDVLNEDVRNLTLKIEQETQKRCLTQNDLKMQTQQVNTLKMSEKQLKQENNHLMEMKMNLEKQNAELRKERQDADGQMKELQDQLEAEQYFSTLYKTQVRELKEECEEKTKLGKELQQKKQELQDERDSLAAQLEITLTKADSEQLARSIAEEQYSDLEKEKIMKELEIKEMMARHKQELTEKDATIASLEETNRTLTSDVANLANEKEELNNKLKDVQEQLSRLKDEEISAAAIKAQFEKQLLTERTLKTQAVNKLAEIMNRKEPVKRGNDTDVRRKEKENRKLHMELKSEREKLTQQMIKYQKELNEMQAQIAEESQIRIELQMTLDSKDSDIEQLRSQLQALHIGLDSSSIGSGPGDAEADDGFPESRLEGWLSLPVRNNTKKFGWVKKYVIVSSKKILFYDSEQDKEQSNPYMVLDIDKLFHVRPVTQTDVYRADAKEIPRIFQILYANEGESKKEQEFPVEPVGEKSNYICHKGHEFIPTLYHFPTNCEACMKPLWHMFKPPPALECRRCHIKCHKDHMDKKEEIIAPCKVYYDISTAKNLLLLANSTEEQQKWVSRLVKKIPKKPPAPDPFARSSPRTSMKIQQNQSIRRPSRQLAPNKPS
UniProt Q9Y5S2: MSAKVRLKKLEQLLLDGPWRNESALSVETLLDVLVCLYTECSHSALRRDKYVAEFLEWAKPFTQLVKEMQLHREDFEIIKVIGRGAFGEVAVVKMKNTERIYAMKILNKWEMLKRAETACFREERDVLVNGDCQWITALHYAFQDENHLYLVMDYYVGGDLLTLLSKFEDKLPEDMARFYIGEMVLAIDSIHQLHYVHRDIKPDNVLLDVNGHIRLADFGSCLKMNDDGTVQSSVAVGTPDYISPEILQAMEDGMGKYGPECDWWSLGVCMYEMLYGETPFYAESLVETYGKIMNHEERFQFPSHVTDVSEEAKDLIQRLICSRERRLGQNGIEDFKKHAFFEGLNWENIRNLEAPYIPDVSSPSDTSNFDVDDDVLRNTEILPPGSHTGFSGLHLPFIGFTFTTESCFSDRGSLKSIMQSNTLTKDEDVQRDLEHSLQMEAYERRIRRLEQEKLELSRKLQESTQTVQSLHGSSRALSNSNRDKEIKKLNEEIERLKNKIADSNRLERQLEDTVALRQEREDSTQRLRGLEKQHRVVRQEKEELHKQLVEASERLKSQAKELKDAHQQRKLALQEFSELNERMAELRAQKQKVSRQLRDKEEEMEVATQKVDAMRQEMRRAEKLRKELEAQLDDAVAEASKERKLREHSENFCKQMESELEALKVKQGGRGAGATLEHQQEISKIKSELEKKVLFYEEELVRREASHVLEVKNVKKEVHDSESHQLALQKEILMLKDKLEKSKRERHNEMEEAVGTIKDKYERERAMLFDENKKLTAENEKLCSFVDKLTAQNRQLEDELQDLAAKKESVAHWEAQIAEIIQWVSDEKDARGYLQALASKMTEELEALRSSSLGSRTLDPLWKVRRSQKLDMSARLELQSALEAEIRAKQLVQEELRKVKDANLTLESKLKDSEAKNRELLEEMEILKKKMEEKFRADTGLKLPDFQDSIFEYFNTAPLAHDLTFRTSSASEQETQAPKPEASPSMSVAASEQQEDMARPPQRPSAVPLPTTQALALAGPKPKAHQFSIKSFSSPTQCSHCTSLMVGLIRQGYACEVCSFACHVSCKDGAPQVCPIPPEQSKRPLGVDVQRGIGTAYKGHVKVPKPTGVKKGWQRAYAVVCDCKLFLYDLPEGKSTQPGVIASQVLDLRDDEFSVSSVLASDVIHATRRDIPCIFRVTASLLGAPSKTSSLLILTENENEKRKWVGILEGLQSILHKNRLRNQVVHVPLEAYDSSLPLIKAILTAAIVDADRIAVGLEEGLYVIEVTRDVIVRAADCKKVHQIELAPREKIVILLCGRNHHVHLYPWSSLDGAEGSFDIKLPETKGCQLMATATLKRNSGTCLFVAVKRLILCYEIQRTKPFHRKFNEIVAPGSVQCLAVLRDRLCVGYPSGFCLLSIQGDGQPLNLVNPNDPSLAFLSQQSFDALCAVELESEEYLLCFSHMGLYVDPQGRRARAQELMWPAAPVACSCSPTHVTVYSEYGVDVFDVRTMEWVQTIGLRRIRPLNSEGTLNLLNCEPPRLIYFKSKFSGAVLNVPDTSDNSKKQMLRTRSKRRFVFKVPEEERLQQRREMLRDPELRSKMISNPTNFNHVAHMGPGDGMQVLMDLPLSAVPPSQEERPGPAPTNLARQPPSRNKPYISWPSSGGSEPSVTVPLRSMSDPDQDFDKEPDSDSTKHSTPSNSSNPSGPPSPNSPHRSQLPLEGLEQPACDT
UniProt Q13464: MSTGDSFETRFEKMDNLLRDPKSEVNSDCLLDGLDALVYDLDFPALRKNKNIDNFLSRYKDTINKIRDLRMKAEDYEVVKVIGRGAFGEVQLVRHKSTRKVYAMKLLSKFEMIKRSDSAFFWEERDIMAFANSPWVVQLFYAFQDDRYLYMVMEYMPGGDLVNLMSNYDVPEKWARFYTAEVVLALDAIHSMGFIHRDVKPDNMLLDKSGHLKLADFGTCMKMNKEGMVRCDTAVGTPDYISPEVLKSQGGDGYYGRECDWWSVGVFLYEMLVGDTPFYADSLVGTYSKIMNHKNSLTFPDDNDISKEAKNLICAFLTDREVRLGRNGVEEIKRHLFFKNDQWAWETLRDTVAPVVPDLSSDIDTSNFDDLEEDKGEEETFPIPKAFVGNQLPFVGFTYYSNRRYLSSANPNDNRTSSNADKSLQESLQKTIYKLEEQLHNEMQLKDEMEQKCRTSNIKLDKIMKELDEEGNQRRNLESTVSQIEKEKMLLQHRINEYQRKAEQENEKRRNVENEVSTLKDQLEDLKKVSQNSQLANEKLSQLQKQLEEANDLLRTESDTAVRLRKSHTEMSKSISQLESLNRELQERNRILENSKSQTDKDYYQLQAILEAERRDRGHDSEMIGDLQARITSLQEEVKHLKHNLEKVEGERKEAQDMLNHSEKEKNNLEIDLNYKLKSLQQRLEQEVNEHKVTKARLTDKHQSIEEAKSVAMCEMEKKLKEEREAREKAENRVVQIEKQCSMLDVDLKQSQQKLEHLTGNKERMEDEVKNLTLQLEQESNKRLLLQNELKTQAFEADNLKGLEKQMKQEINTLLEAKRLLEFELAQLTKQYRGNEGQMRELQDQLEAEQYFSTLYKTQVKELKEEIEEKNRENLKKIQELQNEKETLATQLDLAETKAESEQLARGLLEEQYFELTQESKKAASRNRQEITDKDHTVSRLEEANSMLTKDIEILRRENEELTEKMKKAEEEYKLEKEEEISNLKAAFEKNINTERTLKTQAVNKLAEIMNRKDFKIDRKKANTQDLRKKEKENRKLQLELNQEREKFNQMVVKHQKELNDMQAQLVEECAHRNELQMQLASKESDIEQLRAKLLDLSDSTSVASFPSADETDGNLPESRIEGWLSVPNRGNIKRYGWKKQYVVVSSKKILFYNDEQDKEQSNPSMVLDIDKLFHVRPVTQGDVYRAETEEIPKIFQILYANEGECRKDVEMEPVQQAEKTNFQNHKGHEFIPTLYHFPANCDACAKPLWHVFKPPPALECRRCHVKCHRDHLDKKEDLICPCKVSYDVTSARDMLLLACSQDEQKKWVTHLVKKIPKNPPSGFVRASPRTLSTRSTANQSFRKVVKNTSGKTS
UniProt Q5VT25: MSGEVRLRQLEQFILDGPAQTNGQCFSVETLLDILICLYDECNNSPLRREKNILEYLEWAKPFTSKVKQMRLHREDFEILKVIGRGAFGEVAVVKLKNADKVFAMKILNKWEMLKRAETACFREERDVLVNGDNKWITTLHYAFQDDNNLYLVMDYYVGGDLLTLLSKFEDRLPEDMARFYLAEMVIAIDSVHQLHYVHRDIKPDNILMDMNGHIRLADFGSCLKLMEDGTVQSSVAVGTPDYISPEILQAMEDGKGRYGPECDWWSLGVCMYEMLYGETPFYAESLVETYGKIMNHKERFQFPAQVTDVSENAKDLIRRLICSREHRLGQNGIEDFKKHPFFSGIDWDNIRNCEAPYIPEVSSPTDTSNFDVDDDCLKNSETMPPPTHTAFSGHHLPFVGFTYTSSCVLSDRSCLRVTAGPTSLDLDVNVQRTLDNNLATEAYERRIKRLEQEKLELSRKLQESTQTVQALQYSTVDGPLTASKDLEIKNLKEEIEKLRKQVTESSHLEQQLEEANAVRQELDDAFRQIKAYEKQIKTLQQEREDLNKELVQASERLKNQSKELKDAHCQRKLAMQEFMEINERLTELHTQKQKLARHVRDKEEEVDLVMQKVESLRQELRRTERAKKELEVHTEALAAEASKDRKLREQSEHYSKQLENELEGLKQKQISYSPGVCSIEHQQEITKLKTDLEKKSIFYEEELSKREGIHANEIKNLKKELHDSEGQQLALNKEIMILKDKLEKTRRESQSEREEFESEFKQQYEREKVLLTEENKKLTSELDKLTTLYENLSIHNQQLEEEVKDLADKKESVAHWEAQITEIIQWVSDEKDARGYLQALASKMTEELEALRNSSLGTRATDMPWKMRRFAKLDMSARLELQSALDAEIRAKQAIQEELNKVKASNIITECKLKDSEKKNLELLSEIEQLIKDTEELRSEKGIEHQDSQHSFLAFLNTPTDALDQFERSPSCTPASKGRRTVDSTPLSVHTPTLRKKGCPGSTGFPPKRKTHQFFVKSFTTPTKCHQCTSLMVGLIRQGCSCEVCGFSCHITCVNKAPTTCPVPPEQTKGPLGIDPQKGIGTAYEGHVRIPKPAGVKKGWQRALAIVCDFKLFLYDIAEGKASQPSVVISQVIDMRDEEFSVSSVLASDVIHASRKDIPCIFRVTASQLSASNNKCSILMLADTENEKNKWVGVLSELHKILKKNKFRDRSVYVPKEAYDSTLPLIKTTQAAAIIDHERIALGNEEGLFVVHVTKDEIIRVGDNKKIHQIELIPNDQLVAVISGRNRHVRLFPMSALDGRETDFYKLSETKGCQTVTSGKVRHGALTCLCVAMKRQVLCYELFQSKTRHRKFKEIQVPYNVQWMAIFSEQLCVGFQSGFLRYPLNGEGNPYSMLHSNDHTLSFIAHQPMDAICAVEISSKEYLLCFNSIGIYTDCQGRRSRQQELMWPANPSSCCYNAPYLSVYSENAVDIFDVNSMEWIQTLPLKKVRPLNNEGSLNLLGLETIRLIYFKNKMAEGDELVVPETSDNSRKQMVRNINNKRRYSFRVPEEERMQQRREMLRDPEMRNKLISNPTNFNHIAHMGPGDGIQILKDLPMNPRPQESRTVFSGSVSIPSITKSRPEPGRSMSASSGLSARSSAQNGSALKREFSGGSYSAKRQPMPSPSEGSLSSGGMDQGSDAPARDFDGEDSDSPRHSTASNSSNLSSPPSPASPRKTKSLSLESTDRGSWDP
UniProt P61586: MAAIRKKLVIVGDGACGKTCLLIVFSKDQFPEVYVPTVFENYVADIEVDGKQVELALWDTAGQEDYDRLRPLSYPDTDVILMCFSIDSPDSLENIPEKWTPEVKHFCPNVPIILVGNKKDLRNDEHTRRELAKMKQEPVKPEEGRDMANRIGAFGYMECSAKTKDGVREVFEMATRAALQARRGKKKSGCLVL
UniProt P61026: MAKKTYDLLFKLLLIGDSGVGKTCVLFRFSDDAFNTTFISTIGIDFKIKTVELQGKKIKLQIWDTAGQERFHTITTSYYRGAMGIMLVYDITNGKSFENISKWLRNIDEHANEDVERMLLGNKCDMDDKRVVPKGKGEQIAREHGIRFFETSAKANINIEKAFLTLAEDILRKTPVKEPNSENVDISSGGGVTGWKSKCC

These are yes or no findings as the source states them, for the method shown. In cells and extracts the contact can be indirect. Some binding calls cover weakened binding; strength is not graded here. For some assays here: Sequences can lack the tags named with a protein.

Some targets named below: myc-PAK1 (UniProt Q13153); myc-tagged ROCK2 (UniProt O75116); myc-tagged MRCKβ (UniProt Q9Y5S2); myc-tagged ROCK1 (UniProt Q13464); myc-tagged MRCKα (UniProt Q5VT25).
Common to all, as to experiment: co-IP
The next assay addresses T1, FLAG-MICAL1 (human) (UniProt Q8TDZ2).
T1 sequence: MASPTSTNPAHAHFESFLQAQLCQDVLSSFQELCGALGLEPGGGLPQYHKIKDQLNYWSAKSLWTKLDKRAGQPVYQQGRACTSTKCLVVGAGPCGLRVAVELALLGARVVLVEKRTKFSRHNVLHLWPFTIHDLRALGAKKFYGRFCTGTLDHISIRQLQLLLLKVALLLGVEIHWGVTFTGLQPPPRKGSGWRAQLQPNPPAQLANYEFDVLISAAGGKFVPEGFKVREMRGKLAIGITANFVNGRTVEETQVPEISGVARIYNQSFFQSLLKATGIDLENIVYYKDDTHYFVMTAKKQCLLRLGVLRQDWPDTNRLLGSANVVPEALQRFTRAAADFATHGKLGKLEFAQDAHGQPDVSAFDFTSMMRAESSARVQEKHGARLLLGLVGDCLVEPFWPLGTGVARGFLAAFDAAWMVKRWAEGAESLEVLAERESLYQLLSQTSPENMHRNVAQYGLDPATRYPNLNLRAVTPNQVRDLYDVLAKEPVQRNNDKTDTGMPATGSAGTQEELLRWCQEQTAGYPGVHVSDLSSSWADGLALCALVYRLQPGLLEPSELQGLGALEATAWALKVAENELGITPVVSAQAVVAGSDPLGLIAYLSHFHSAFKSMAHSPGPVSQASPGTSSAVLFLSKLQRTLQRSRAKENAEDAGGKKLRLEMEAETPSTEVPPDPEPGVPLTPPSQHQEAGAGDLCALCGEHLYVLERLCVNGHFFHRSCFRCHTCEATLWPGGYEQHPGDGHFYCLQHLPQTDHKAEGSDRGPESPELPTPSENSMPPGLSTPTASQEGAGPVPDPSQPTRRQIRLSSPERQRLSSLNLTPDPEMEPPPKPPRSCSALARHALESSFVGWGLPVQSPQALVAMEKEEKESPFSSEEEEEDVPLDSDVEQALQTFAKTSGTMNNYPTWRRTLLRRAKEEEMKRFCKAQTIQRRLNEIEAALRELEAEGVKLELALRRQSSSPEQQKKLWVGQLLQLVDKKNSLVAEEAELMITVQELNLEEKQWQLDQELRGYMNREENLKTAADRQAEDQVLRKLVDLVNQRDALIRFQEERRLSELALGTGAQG

The target in assay [1] is myc-tagged constitutively-active RHOA Q63L (UniProt P61586).

With “FLAG-MICAL1 C1 (830-1067 amino acids) (from UniProt Q8TDZ2 830-1067) (domain or fragment)”, the binding result with myc-PAK1 was “no binding”.
Regarding “FLAG-MICAL1 C2 (676-1067 amino acids) (from UniProt Q8TDZ2 676-1067) (domain or fragment)”, the binding entry with myc-PAK1 was “no binding”.
As for eGFP-RAB10 (from UniProt P61026 1-200), the binding entry in the assay with FLAG-MICAL1 (human) is recorded as “binds”.

B1: FLAG-MICAL1 (enzyme, UniProt Q8TDZ2 1-1067)
chain: T1 sequence
Consider B1, for which the binding entry (in assay [1]; with myc-tagged ROCK2; with myc-tagged MRCKβ; with myc-tagged ROCK1; in the assay with myc-tagged MRCKα) was “no binding” throughout.
